# Source: the supplement of paper PMC4604168 (melanoma cell lines)
# This is one part of the list. Repeats are few or missing, and single values can be far off.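 Imaging used 1,536-well plates; nuclei positive for cleaved PARP by antibody were divided by total DNA-stained nuclei to yield the apoptosis fraction. Doses for screening kept most cells viable, and cell lines differ markedly in resting and induced cleaved-PARP levels.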
# Key:
# Test in all cases: cleaved PARP positive nuclei fraction relative to DMSO control; melanoma cells; higher = more apoptosis
# Conditions in all cases: library dose: low library concentration; 72 h
# 501Mel = system: 501Mel
# A101D = system: A101D
# A2058 = system: A2058
# A375 = system: A375
# C32 = system: C32
# CBRC008 = system: CBRC008 (line from a melanoma biopsy)
# CBRC014 = system: CBRC014 (line from a melanoma biopsy)
# CBRC016 = system: CBRC016 (line from a melanoma biopsy)
# CBRC017 = system: CBRC017 (line from a melanoma biopsy)
# CBRC034 = system: CBRC034 (line from a melanoma biopsy)
# COLO792 = system: COLO792
# COLO800 = system: COLO800
# COLO829 = system: COLO829
# G361 = system: G361
# IPC-298 = system: IPC-298
# IST-MEL1 = system: IST-MEL1
# LB2518-MEL = system: LB2518-MEL
# LOXIMVI = system: LOXIMVI
# MEL-HO = system: MEL-HO
Compound,cleaved PARP positive nuclei fraction (501Mel),cleaved PARP positive nuclei fraction (A101D),cleaved PARP positive nuclei fraction (A2058),cleaved PARP positive nuclei fraction (A375),cleaved PARP positive nuclei fraction (C32),cleaved PARP positive nuclei fraction (CBRC008),cleaved PARP positive nuclei fraction (CBRC014),cleaved PARP positive nuclei fraction (CBRC016),cleaved PARP positive nuclei fraction (CBRC017),cleaved PARP positive nuclei fraction (CBRC034),cleaved PARP positive nuclei fraction (COLO792),cleaved PARP positive nuclei fraction (COLO800),cleaved PARP positive nuclei fraction (COLO829),cleaved PARP positive nuclei fraction (G361),cleaved PARP positive nuclei fraction (IPC-298),cleaved PARP positive nuclei fraction (IST-MEL1),cleaved PARP positive nuclei fraction (LB2518-MEL),cleaved PARP positive nuclei fraction (LOXIMVI),cleaved PARP positive nuclei fraction (MEL-HO)
"C[C@@H](N)c1ccc(C(=O)Nc2ccnc3[nH]ccc23)cc1 + CS(=O)(=O)CCNCc1ccc(-c2ccc3ncnc(Nc4ccc(OCc5cccc(F)c5)c(Cl)c4)c3c2)o1 [lapatinib] (first compound 0.4 µM, partner dose 0.8 µM)",80.6%,225%,55.6%,126%,80.7%,322%,81.3%,210%,142%,145%,148%,65.6%,135%,150%,343%,59.2%,96.5%,78.7%,225%
"CS(=O)(=O)c1ccc(C(=O)Nc2ccc(Cl)c(-c3ccccn3)c2)c(Cl)c1 [vismodegib] + CCN(CC)CCNC(=O)c1c(C)[nH]c(/C=C2\C(=O)Nc3ccc(F)cc32)c1C [sunitinib] (first compound 1 µM, partner dose 0.4 µM)",70.4%,56.4%,83.5%,147%,90.5%,74.6%,117%,,200%,32.6%,33.3%,119%,112%,85.3%,140%,91.3%,93.9%,38.2%,107%
"NC1(c2ccc(-c3nc4ccn5c(=O)[nH]nc5c4cc3-c3ccccc3)cc2)CCC1 + COc1ccc(Cl)c(Nc2nc3ccccc3nc2NS(=O)(=O)c2cccc(NC(=O)C(C)(C)N)c2)c1 [XL147] (first compound 0.4 µM, partner dose 0.8 µM)",78%,159%,73.1%,223%,44.1%,161%,111%,160%,116%,85%,157%,102%,213%,130%,96.3%,108%,251%,15.4%,94.6%
"CC(=O)O[C@@]12CO[C@@H]1C[C@H](O)[C@@]1(C)C(=O)[C@H](O)C3=C(C)[C@@H](OC(=O)[C@H](O)[C@@H](NC(=O)OC(C)(C)C)c4ccccc4)C[C@@](O)([C@@H](OC(=O)c4ccccc4)[C@H]21)C3(C)C [Docetaxel] + CN(c1ncccc1CNc1nc(Nc2ccc3c(c2)CC(=O)N3)ncc1C(F)(F)F)S(C)(=O)=O [PF562271] (first compound 0.0001 µM, partner dose 0.08 µM)",293%,224%,2380%,4690%,147%,170%,176%,280%,186%,84.1%,549%,530%,412%,1020%,198%,108%,72.8%,185%,50.6%
"NC(=O)c1ccc(N(C(N)=O)c2c(F)cccc2F)nc1-c1ccc(F)cc1F + Cn1c(=O)n(-c2ccc(C(C)(C)C#N)cc2)c2c3cc(-c4cnc5ccccc5c4)ccc3ncc21 [NVP-BEZ235] (first compound 0.4 µM, partner dose 0.004 µM)",95%,46.1%,146%,104%,156%,19%,95.8%,179%,250%,90.3%,90.2%,75.2%,111%,133%,53.9%,136%,102%,53.2%,313%
"CC1(C)CCC(c2ccc(Cl)cc2)=C(CN2CCN(c3ccc(C(=O)NS(=O)(=O)c4ccc(N[C@H](CCN5CCOCC5)CSc5ccccc5)c(S(=O)(=O)C(F)(F)F)c4)cc3)CC2)C1 + Clc1ccc(Nc2nnc(Cc3ccncc3)c3ccccc23)cc1 [vatalanib] (first compound 0.4 µM, partner dose 2 µM)",126%,269%,346%,618%,425%,578%,687%,915%,293%,99%,389%,65%,202%,136%,256%,185%,279%,43.9%,54.7%
"CS(=O)(=O)c1ccc(C(=O)Nc2ccc(Cl)c(-c3ccccn3)c2)c(Cl)c1 [vismodegib] + CO[C@H]1C[C@@H]2CC[C@@H](C)[C@@](O)(O2)C(=O)C(=O)N2CCCC[C@H]2C(=O)O[C@H]([C@H](C)C[C@@H]2CC[C@@H](OCCO)[C@H](OC)C2)CC(=O)[C@H](C)/C=C(\C)[C@@H](O)[C@@H](OC)C(=O)[C@H](C)C[C@H](C)/C=C/C=C/C=C/1C [everolimus] (first compound 1 µM, partner dose 0.02 µM)",386%,118%,181%,798%,90.9%,119%,102%,94.4%,219%,388%,135%,134%,245%,259%,155%,38.3%,152%,109%,139%
"COc1ccc(C2=N[C@@H](c3ccc(Cl)cc3)[C@@H](c3ccc(Cl)cc3)N2C(=O)N2CCNC(=O)C2)c(OC(C)C)c1 [Nutlin-3] + NC1(c2ccc(-c3nc4ccn5c(=O)[nH]nc5c4cc3-c3ccccc3)cc2)CCC1 [MK2206] (first compound 0.1 µM, partner dose 0.4 µM)",113%,50.7%,40.7%,120%,31%,105%,87.2%,112%,111%,72.6%,158%,39.9%,100%,78.2%,81.4%,66.9%,60.6%,61.6%,81.6%

# Single records (already shown). Order of values: cleaved PARP positive nuclei fraction (501Mel)	cleaved PARP positive nuclei fraction (A101D)	cleaved PARP positive nuclei fraction (A2058)	cleaved PARP positive nuclei fraction (A375)	cleaved PARP positive nuclei fraction (C32)	cleaved PARP positive nuclei fraction (CBRC008)	cleaved PARP positive nuclei fraction (CBRC014)	cleaved PARP positive nuclei fraction (CBRC016)	cleaved PARP positive nuclei fraction (CBRC017)	cleaved PARP positive nuclei fraction (CBRC034)	cleaved PARP positive nuclei fraction (COLO792)	cleaved PARP positive nuclei fraction (COLO800)	cleaved PARP positive nuclei fraction (COLO829)	cleaved PARP positive nuclei fraction (G361)	cleaved PARP positive nuclei fraction (IPC-298)	cleaved PARP positive nuclei fraction (IST-MEL1)	cleaved PARP positive nuclei fraction (LB2518-MEL)	cleaved PARP positive nuclei fraction (LOXIMVI)	cleaved PARP positive nuclei fraction (MEL-HO)
# NC(=O)c1ccc(N(C(N)=O)c2c(F)cccc2F)nc1-c1ccc(F)cc1F + Cn1c(=O)n(-c2ccc(C(C)(C)C#N)cc2)c2c3cc(-c4cnc5ccccc5c4)ccc3ncc21 [NVP-BEZ235] (first compound 0.4 µM, partner dose 0.004 µM) reads 95%	46.1%	146%	104%	156%	19%	95.8%	179%	250%	90.3%	90.2%	75.2%	111%	133%	53.9%	136%	102%	53.2%	313%
# CC1(C)CCC(c2ccc(Cl)cc2)=C(CN2CCN(c3ccc(C(=O)NS(=O)(=O)c4ccc(N[C@H](CCN5CCOCC5)CSc5ccccc5)c(S(=O)(=O)C(F)(F)F)c4)cc3)CC2)C1 + Clc1ccc(Nc2nnc(Cc3ccncc3)c3ccccc23)cc1 [vatalanib] (first compound 0.4 µM, partner dose 2 µM) reads 126%	269%	346%	618%	425%	578%	687%	915%	293%	99%	389%	65%	202%	136%	256%	185%	279%	43.9%	54.7%
